Test results from patent US20240034722A1, “PRETARGETING IMAGING AGENTS” (Eli Lilly and Company, priority 2020, published 2024).
Further values from the same series stand in other lists.

Experiment: Dynamic micro PET-CT imaging, tracer uptake in brain, muscle and bone
Type: in vivo
Settings: male CD-1 mice, iv
Protocol: (§1) A Siemens Inveon® Multimodality Scanner (Siemens, Germany) is used for micro PET-CT imaging. Male CD-1 (6-week-old, ˜30 g) mice are anesthetized with 3% isoflurane/97% oxygen and placed on the bed of the scanner. The mice are administered [^18F]N-(4-(1,2,4,5-tetrazin-3-yl)benzyl)-2-fluoronicotinamide via a bolus intravenous tail vein injection (˜350 ρCi in a total volume of 150 μL saline). A total of four dynamic PET scans are conducted, followed by a short high-resolution CT scan for anatomical registration. PET images are generated for each minute of the acquisition time. Uptake of the tracer in the brain, muscle, and bone are determined by visually drawing regions of interest (ROIs) based on the fused PET/CT images and the corresponding activity values are determined using the Inveon® Research Workplace software. All values are represented as % injected dose per gram (% ID/g).
as §1, with “g) mice were anesthetized with” for “g) mice are anesthetized with”, “are administered [^18F]N-(4-(1,2,4,5-tetrazin-3-yl)benzyl)-6-fluoropicolinamide via a” for “are administered [^18F]N-(4-(1,2,4,5-tetrazin-3-yl)benzyl)-2-fluoronicotinamide via a”, “vein injection (˜300 ρCi in” for “vein injection (˜350 ρCi in”
as §1, with “PET/CT” for “PET-CT”, “30-40” for “˜30”, “[^18F]N-(4-(1,2,4,5-tetrazin-3-yl)benzyl)-6-fluoronicotinamide” for “[^18F]N-(4-(1,2,4,5-tetrazin-3-yl)benzyl)-2-fluoronicotinamide”, “(˜300” for “(˜350”, “two” for “four”

Bone Mean % ID/g (Time 0.0 min): 0.00 % ID/g
Brain Mean % ID/g (Time 0.0 min): 0.00 % ID/g
Muscle Mean % ID/g (Time 0.0 min): 0.00 % ID/g
Bone Mean % ID/g (Time 33.5 min): 1.01 % ID/g
Brain Mean % ID/g (Time 33.5 min): 1.36 % ID/g
Muscle Mean % ID/g (Time 33.5 min): 1.00 % ID/g
Bone Mean % ID/g (Time 34.5 min): 1.06 % ID/g
Brain Mean % ID/g (Time 34.5 min): 1.34 % ID/g
Muscle Mean % ID/g (Time 34.5 min): 1.04 % ID/g
Bone Mean % ID/g (Time 35.5 min): 0.97 % ID/g
Brain Mean % ID/g (Time 35.5 min): 1.33 % ID/g
Muscle Mean % ID/g (Time 35.5 min): 1.04 % ID/g
Bone Mean % ID/g (Time 36.5 min): 1.01 % ID/g
Brain Mean % ID/g (Time 36.5 min): 1.30 % ID/g
Muscle Mean % ID/g (Time 36.5 min): 1.04 % ID/g
Bone Mean % ID/g (Time 37.5 min): 0.99 % ID/g
Brain Mean % ID/g (Time 37.5 min): 1.31 % ID/g
Muscle Mean % ID/g (Time 37.5 min): 1.03 % ID/g
Bone Mean % ID/g (Time 38.5 min): 1.12 % ID/g
Brain Mean % ID/g (Time 38.5 min): 1.29 % ID/g
Muscle Mean % ID/g (Time 38.5 min): 1.03 % ID/g
Bone Mean % ID/g (Time 39.5 min): 1.13 % ID/g
Brain Mean % ID/g (Time 39.5 min): 1.26 % ID/g
Muscle Mean % ID/g (Time 39.5 min): 1.03 % ID/g
Bone Mean % ID/g (Time 40.5 min): 1.07 % ID/g
Brain Mean % ID/g (Time 40.5 min): 1.25 % ID/g
Muscle Mean % ID/g (Time 40.5 min): 1.05 % ID/g
Bone Mean % ID/g (Time 41.5 min): 1.06 % ID/g
Brain Mean % ID/g (Time 41.5 min): 1.26 % ID/g
Muscle Mean % ID/g (Time 41.5 min): 1.08 % ID/g
Bone Mean % ID/g (Time 42.5 min): 1.00 % ID/g
Brain Mean % ID/g (Time 42.5 min): 1.23 % ID/g
Muscle Mean % ID/g (Time 42.5 min): 1.06 % ID/g
Bone Mean % ID/g (Time 43.5 min): 1.09 % ID/g
Brain Mean % ID/g (Time 43.5 min): 1.23 % ID/g
Muscle Mean % ID/g (Time 43.5 min): 1.07 % ID/g
Bone Mean % ID/g (Time 44.5 min): 0.97 % ID/g
Brain Mean % ID/g (Time 44.5 min): 1.21 % ID/g
Muscle Mean % ID/g (Time 44.5 min): 1.02 % ID/g
Bone Mean % ID/g (Time 45.5 min): 1.09 % ID/g
Brain Mean % ID/g (Time 45.5 min): 1.21 % ID/g
Muscle Mean % ID/g (Time 45.5 min): 1.10 % ID/g
Bone Mean % ID/g (Time 46.5 min): 1.04 % ID/g
Brain Mean % ID/g (Time 46.5 min): 1.19 % ID/g
Muscle Mean % ID/g (Time 46.5 min): 1.06 % ID/g
Bone Mean % ID/g (Time 47.5 min): 1.07 % ID/g
Brain Mean % ID/g (Time 47.5 min): 1.19 % ID/g
Muscle Mean % ID/g (Time 47.5 min): 1.07 % ID/g
Bone Mean % ID/g (Time 48.5 min): 1.06 % ID/g
Brain Mean % ID/g (Time 48.5 min): 1.18 % ID/g
Muscle Mean % ID/g (Time 48.5 min): 1.06 % ID/g
Bone Mean % ID/g (Time 49.5 min): 1.03 % ID/g
Brain Mean % ID/g (Time 49.5 min): 1.18 % ID/g
Muscle Mean % ID/g (Time 49.5 min): 1.06 % ID/g
Bone Mean % ID/g (Time 50.5 min): 1.27 % ID/g
Brain Mean % ID/g (Time 50.5 min): 1.17 % ID/g
Muscle Mean % ID/g (Time 50.5 min): 1.11 % ID/g
Bone Mean % ID/g (Time 51.5 min): 1.15 % ID/g
Brain Mean % ID/g (Time 51.5 min): 1.16 % ID/g
Muscle Mean % ID/g (Time 51.5 min): 1.09 % ID/g
Bone Mean % ID/g (Time 52.5 min): 1.19 % ID/g
Brain Mean % ID/g (Time 52.5 min): 1.15 % ID/g
Muscle Mean % ID/g (Time 52.5 min): 1.10 % ID/g
Bone Mean % ID/g (Time 53.5 min): 1.08 % ID/g
Brain Mean % ID/g (Time 53.5 min): 1.14 % ID/g
Muscle Mean % ID/g (Time 53.5 min): 1.10 % ID/g
Bone Mean % ID/g (Time 54.5 min): 1.11 % ID/g
Brain Mean % ID/g (Time 54.5 min): 1.13 % ID/g
Muscle Mean % ID/g (Time 54.5 min): 1.10 % ID/g
Bone Mean % ID/g (Time 55.5 min): 1.13 % ID/g
Brain Mean % ID/g (Time 55.5 min): 1.09 % ID/g
Muscle Mean % ID/g (Time 55.5 min): 1.11 % ID/g
Bone Mean % ID/g (Time 56.5 min): 1.13 % ID/g
Brain Mean % ID/g (Time 56.5 min): 1.09 % ID/g
Muscle Mean % ID/g (Time 56.5 min): 1.05 % ID/g
Bone Mean % ID/g (Time 57.5 min): 1.09 % ID/g
Brain Mean % ID/g (Time 57.5 min): 1.09 % ID/g
Muscle Mean % ID/g (Time 57.5 min): 1.13 % ID/g
Bone Mean % ID/g (Time 58.5 min): 1.03 % ID/g
Brain Mean % ID/g (Time 58.5 min): 1.08 % ID/g
Muscle Mean % ID/g (Time 58.5 min): 1.05 % ID/g
Bone Mean % ID/g (Time 59.5 min): 1.07 % ID/g
Brain Mean % ID/g (Time 59.5 min): 1.09 % ID/g
Muscle Mean % ID/g (Time 59.5 min): 1.09 % ID/g
SMILES: O=C(NCc1ccc(-c2nncnn2)cc1)c1ccc([18F])nc1 [Comparative Example 6, [^18]FN-(4-(1,2,4,5-tetrazin-3-yl)benzyl)-6-fluoronicotinamide]
